{"source": "PubChem BioAssay AID1259425 (University of Nebraska Medical Center, 2018)", "purpose": "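Seek colon cancer weak points whose silencing resembles KSR1 loss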 (primary screen)", "system": "HCT116 human colon cancer cells", "reagents": "siRNA pool against human genes, 50 nM siRNA", "detection": "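mRNA of six signature genes measured together by branched-DNA assay after 50 nM siRNA pool, blank removed, divided by geometric mean of two housekeeping genes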", "scale": "BNIP3L mRNA: higher = more BNIP3L transcript after knockdown", "note": "The deposit covers about 14,000 reagents; below is a random part of them. Not all columns of the deposit are shown. The record does not give: the time to read-out."}
{"gene symbol": "CTSS", "PubChem SID": "SID363995089", "BNIP3L mRNA, set 1": 0.131}
{"gene symbol": "NDFIP1", "PubChem SID": "SID364003363", "BNIP3L mRNA, set 1": 0.123}
{"gene symbol": "MCUB", "PubChem SID": "SID364000643", "BNIP3L mRNA, set 1": 0.109}
{"gene symbol": "FOXL2", "PubChem SID": "SID364002628", "BNIP3L mRNA, set 1": 0.0646}
{"gene symbol": "YJU2", "PubChem SID": "SID364000759", "BNIP3L mRNA, set 1": 0.14}
{"gene symbol": "SGTA", "PubChem SID": "SID363994170", "BNIP3L mRNA, set 1": 0.165}
{"gene symbol": "ARHGAP45", "PubChem SID": "SID363998208", "BNIP3L mRNA, set 1": 0.0609}
{"gene symbol": "MAP1LC3A", "PubChem SID": "SID364004027", "BNIP3L mRNA, set 1": 0.19}
{"gene symbol": "MEP1A", "PubChem SID": "SID363996484", "BNIP3L mRNA, set 1": 0.0838}
{"gene symbol": "KCNK13", "PubChem SID": "SID364002292", "BNIP3L mRNA, set 1": 0.136}
{"gene symbol": "ARHGAP31", "PubChem SID": "SID364001808", "BNIP3L mRNA, set 1": 0.165}
{"gene symbol": "KDM4B", "PubChem SID": "SID363999254", "BNIP3L mRNA, set 1": 0.172}
{"gene symbol": "PDIA2", "PubChem SID": "SID363997613", "BNIP3L mRNA, set 1": 0.129}
{"gene symbol": "POLR1E", "PubChem SID": "SID364002475", "BNIP3L mRNA, set 1": 0.109}
{"gene symbol": "CUL4A", "PubChem SID": "SID363994669", "BNIP3L mRNA, set 1": 0.0653}
{"gene symbol": "CCNL2", "PubChem SID": "SID364003511", "BNIP3L mRNA, set 1": 0.141}

A portion from the list above:
{"gene symbol": "CUL4A", "PubChem SID": "SID363994669", "BNIP3L mRNA, set 1": 0.0653}
{"gene symbol": "CCNL2", "PubChem SID": "SID364003511", "BNIP3L mRNA, set 1": 0.141}

The list goes on:
{"gene symbol": "PID1", "PubChem SID": "SID364000656", "BNIP3L mRNA, set 1": 0.153}
{"gene symbol": "CPXM1", "PubChem SID": "SID364001437", "BNIP3L mRNA, set 1": 0.0549}
{"gene symbol": "RDH16", "PubChem SID": "SID363994777", "BNIP3L mRNA, set 1": 0.123}
{"gene symbol": "BCL2L11", "PubChem SID": "SID363997331", "BNIP3L mRNA, set 1": 0.1}
{"gene symbol": "EXOC2", "PubChem SID": "SID364000960", "BNIP3L mRNA, set 1": 0.117}
{"gene symbol": "PSTPIP1", "PubChem SID": "SID363995031", "BNIP3L mRNA, set 1": 0.124}
{"gene symbol": "RDX", "PubChem SID": "SID363994061", "BNIP3L mRNA, set 1": 0.112}
{"gene symbol": "C10orf1 (retired record)", "PubChem SID": "SID364005008", "BNIP3L mRNA, set 1": 0.0927}
{"gene symbol": "PITPNM3", "PubChem SID": "SID364003558", "BNIP3L mRNA, set 1": 0.165}
{"gene symbol": "MUC2", "PubChem SID": "SID363993634", "BNIP3L mRNA, set 1": 0.235}
{"gene symbol": "SLF2", "PubChem SID": "SID364000798", "BNIP3L mRNA, set 1": 0.116}
{"gene symbol": "METTL2B", "PubChem SID": "SID364001037", "BNIP3L mRNA, set 1": 0.162}
